This is one part of the list. Most values lie at the level of the controls, where differences are scatter.
Key:
ppGalNAc-T3 sensor = assay: T3 sensor activation Q score (MG/GFP ratio z-score vs DMSO controls) (SD units); higher = more sensor activation (inhibition of ppGalNAc-T3 glycosylation); conditions: HEK293 sensor cells; 10 µM; 6 h
Description: (§1)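 Cells were treated with compound at 10 uM for 6 h, then MG/GFP ratio was read by flow cytometry (10,000 cells per well, duplicate wells). Q = (R - R_neg)/SD_neg relative to DMSO vehicle controls; the signal rises when the glycosyltransferase is inhibited.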

ppGalNAc-T2 sensor = assay: T2 sensor activation Q score (MG/GFP ratio z-score vs DMSO controls) (SD units); higher = more sensor activation (inhibition of ppGalNAc-T2 glycosylation); conditions: HEK293 sensor cells; 10 µM; 6 h
Description: as §1

Compound	T3 sensor activation Q score (ppGalNAc-T3 sensor)	T2 sensor activation Q score (ppGalNAc-T2 sensor)
CCC1(C)CC(c2csc(N)n2)CCO1 (stereo unspecified)	0.005	0.3
COc1ccc(OCCOc2ccc(C)cc2OC)cc1	-0.985	-0.11
CN(C)c1ccc(NC2=C([N+](=O)[O-])CS(=O)(=O)C2)cc1	-0.45	-1.1
CC(C)(C)C(=O)NCCCc1ccccc1	0.715	-0.115
COc1ccc(CN2CCCN(C)CC2)c(OC)c1C	-0.12	0.325
COc1ccc(OC)c(S(=O)(=O)c2ccc(C)c(C)c2)c1	-0.075	0.17
Cc1ccc(C)c(CN2CCN(c3ccccn3)CC2)c1	-0.695	-0.39
CN1CCN(Cc2ccc3c(c2)Cc2ccccc2-3)CC1	2.48	-0.845
COc1ccc(CN2CCSCC2)cc1O	-0.01	0.095
Cc1ccc(NC(=O)c2ccco2)cc1	-0.275	-1.3
COc1ccc(Br)cc1CN1CCC(O)CC1	0.27	0.22
COc1ccc(CN2CCN(Cc3ccc4c(c3)OCO4)CC2)c(C)c1C	-0.225	0.315
COc1ccccc1CNC(=O)c1cccc(I)c1	1.06	-0.975
COc1cc2c(cc1OC)CN(Cc1ccc(Cl)cc1)CC2	-0.58	0.24
C[C@H](NC(=O)Cc1ccccc1)c1ccccc1	0.35	-0.47
CN1CCN(C(=O)c2cc(-c3ccccc3)nc3ccccc23)CC1	0.435	0.155
CC(=O)Nc1ccc(C(=O)NC(C)CCc2ccccc2)cc1 (stereo unspecified)	0.11	0
CCN1CCN(C2CC(=O)N(c3cccc(Cl)c3)C2=O)CC1 (stereo unspecified)	-0.62	-0.87
CC1(C)NC(C(=O)O)Cc2c1[nH]c1ccccc21 (stereo unspecified)	0.735	-1.12
CC(C)c1ccc(CN2CCCN(C)CC2)cc1	1.07	-0.325
CN(CCc1ccccc1)C1CCN(Cc2ccccc2)CC1	0.675	-0.34
CC(=O)Nc1ccc(NC(=O)c2ccc(I)cc2)cc1	-0.44	0.165
Cc1ccc2[nH]c3c(c2c1)CCCC3NCc1ccc(Cl)cc1 (stereo unspecified)	-0.01	0.43
CCN(C/C=C/c1ccccc1)CCN(C)C	0.545	0.53
CC1CCN(C2CCN(CCc3ccccc3)CC2)CC1	0.76	-0.765
CC1Cc2c([nH]c3ccccc23)C(=O)N1 (stereo unspecified)	1.07	-0.97
Cc1ccc(NC(=O)c2ccc([N+](=O)[O-])o2)cc1	-0.075	-0.64

Looked up above.
In T2 sensor activation Q score (ppGalNAc-T2 sensor), COc1ccc(OCCOc2ccc(C)cc2OC)cc1 shows -0.11
In T3 sensor activation Q score (ppGalNAc-T3 sensor), COc1ccccc1CNC(=O)c1cccc(I)c1 shows 1.06
In T2 sensor activation Q score (ppGalNAc-T2 sensor), COc1ccc(CN2CCN(Cc3ccc4c(c3)OCO4)CC2)c(C)c1C shows 0.315

(listing goes on)

Compound	T3 sensor activation Q score (ppGalNAc-T3 sensor)	T2 sensor activation Q score (ppGalNAc-T2 sensor)
COc1ccc(C(=O)N2CCCCCC2)cc1OC	0.275	-0.9
CCN(CC)CCNC(=O)c1sc2ccccc2c1Cl	-0.635	-0.07
CN(C)CCNc1ncnc2scc(-c3ccccc3)c12	-0.09	-0.24
CC(C(=O)O)c1n[nH]c(=O)c2ccccc12 (stereo unspecified)	0.105	-0.52
COc1ccccc1CNC(=O)c1ccc(C(C)(C)C)cc1	0.955	-1.03
CCCCOc1ccc(CN2CCC(O)CC2)cc1	0.27	0.21
O=C1C=C(Nc2ccccc2F)CC(c2ccccc2)C1 (stereo unspecified)	-0.385	0.19
COc1ccc(CNC2=CC(=O)CC(C)(C)C2)cc1	-0.275	-0.9
O=S(=O)(O)c1cccc2cccnc12	2.85	1.98
O=C(CC1CCCCC1)Nc1ccccc1	-0.26	-0.375
COc1ccc(C(=O)Nc2ccccc2)cc1N	-0.265	0.73
c1ccc(-c2cn3ccsc3n2)cc1	0.03	-1.25
Brc1ccc2[nH]c3c(c2c1)CCCC3NCc1ccccc1 (stereo unspecified)	0.89	-1.2
O=Cc1ccc(-c2ccc([N+](=O)[O-])cc2)o1	-0.735	-0.27
CCCC(C)NC(=O)c1ccc(Cl)cc1[N+](=O)[O-] (stereo unspecified)	-0.3	-0.21
CC(C)(C)S(=O)(=O)c1cccs1	0.25	-0.705
O=C(Cc1ccc(F)cc1F)Nc1ccccc1	0.465	-0.65
O=C(c1ccccc1)N1CCNCC1	-0.245	0.835
COc1cc(CN2CCN(c3ccc(F)cc3)CC2)c([N+](=O)[O-])cc1OC	0.45	1.5
C=CCOc1ccccc1CN1CCCCC1	0.38	-0.105
COc1cc(CN2CCN(C/C=C/c3ccccc3)CC2)cc(OC)c1O	-0.3	0.195
Cc1ccc(-c2ncccc2O)cc1	-0.875	0.07
CC(=O)C1=C(O)C(=O)N(c2ccccn2)C1c1ccc(Br)cc1 (stereo unspecified)	0.155	0.115
COc1cc2c(cc1OC)CN(Cc1ccc(NC(C)=O)cc1)CC2	0.235	0.04
CCC(CC)C(=O)N1CCN(c2ccc([N+](=O)[O-])cc2)CC1	-0.445	0.345
O=C(NCCCCc1ccccc1)c1ccc(Cl)cc1Cl	0.395	-0.57

Source: the supplement of paper PMC5407854, “Inhibitor of ppGalNAc-T3-mediated O-glycosylation blocks cancer cell invasiveness and lowers FGF23 levels” (eLife, 2017)
